For at least one compound, name, drawing or mass did not settle the structure.
Test system: memantine-induced 2DG uptake in mouse brain (hippocampus)
Experiment: Reversal of memantine-induced brain activation ([14C]2DG uptake) in mice
Type: in vivo
Conditions: reference drugs
Description: Reversal of Memantine-Induced Brain Activation in Mice
NMDA receptor hypofunction is hypothesized to be involved in schizophrenia.
Autoradiographic assessment of radiolabeled [^14C]-2-deoxyglucose ([^14C]2DG) uptake is commonly used to investigate brain activation. In humans, cerebral blood flow is increased in specific brain regions after administration of a subanaesthetic dose of ketamine.
Male mice (C57BL/6, weight 24-28 g, fasted overnight; n=10 animals per group) were treated with vehicle or test compound (s.c.) in randomized order (t=0 min). Memantine (20 mg/kg, s.c.) was injected 30 min later (t=30 min). At t=45 min, [^14C]2DG (0.16 μCi/g) was administered intraperitoneally (i.p.), followed by a 45 min uptake period. Animals were decapitated (t=90 min), plasma glucose levels measured, the brain removed, rapidly frozen and stored at −20° C. until sectioned. […] Local tissue [^14C]concentration (nCi/mg tissue equivalent—TEQ—) in each region of interest was determined.
Data was analyzed statistically using a two-way ANOVA analysis followed by post-hoc tests (memantine response versus reversal by the compound). The results are shown in table 5 below, expressed as lowest active dose (L.A.D.) required to exert a statistically significant (p<0.05) reduction of 2DG uptake in the hippocampus compared to memantine response.

Structure (SMILES): CN1CCN(C2=Nc3cc(Cl)ccc3Nc3ccccc32)CC1 [clozapine, reference compound]
- effect on memantine-induced brain glucose metabolism / 2DG uptake (in words): reversed
